Laboratory results reported in PubChem BioAssay AID2707 (National Center for Advancing Translational Sciences (NCATS), 2010).
The shares of active, inactive and inconclusive entries below differ from those in the screen. A potency beside an inconclusive call is a rough fit, not a confirmed value. Active and inactive are the calls of the source.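 The calls were made as follows: active = potency below 100 µM; inconclusive = dose-dependent response but potency above 100 µM; inactive = the rest.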

Protein sequences, listed by entry. Tags and fused reporters are not part of them.
UniProt Q9F4F7, whole entry, looked up: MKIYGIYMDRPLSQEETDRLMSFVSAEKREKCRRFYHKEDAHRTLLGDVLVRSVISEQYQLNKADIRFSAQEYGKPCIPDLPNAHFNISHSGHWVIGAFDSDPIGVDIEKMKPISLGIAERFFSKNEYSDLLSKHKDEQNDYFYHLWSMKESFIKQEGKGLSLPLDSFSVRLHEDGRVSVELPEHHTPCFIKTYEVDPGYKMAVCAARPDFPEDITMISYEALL

Biological target: 4'-phosphopantetheinyl transferase ffp (Bacillus subtilis) (UniProt Q9F4F7)
Assay: Gel-Based Assay for Inhibitors of Bacillus subtilis Sfp phosphopantetheinyl transferase (PPTase)
Settings: purified Sfp, gel-based phosphopantetheinylation read-out
In short: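 B. subtilis Sfp (26.6 nM in 1.33X enzyme mix, HEPES/MgCl2/NP-40/BSA pH 7.6) preincubated 10 min with compound, then Rhodamine-CoA and apo-ACP added; 30 min RT, urea/EDTA quench, native PAGE fluorescence bands, normalized to SCH202676, 4-parameter Hill fit.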

| SMILES | Potency | outcome |
| --- | --- | --- |
| COC(=O)c1cccc(-n2c(CCC(=O)O)ccc2-c2cccs2)c1 | inconclusive: 167 µM [inhibitor] |  |
| CCOC(=O)NNc1nncc2ccccc12 | inconclusive: 224 µM [inhibitor] |  |
| CC(C)(C)C(=O)OCOP(=O)(COCCn1cnc2c(N)ncnc21)OCOC(=O)C(C)(C)C | inconclusive: 167 µM [inhibitor] |  |
| Oc1ccc(NCc2ccccc2OCc2ccccc2)cc1 | inconclusive: 167 µM [inhibitor] |  |
| O=C(COC(=O)/C=C/c1ccco1)NCc1ccccc1Cl |  | inactive |
| CC(C)NC[C@@H](O)c1ccc(O)c(O)c1 |  | inactive |
| c1ccc(-c2nnc(CN3CCCc4ccccc43)o2)cc1 | inconclusive: 167 µM [inhibitor] |  |
| CC1=C(C(N)=O)N2C(=O)[C@@H](NC(=O)Cc3ccccc3)C2SC1 (some centres undefined) | active: 0.92 µM |  |
| Nc1nnc2c(n1)CCCC2 | active: 6.17 µM |  |
| COc1ccccc1N1CCN(C(=O)c2oc3cc(C)cc(C)c3c2C)CC1 |  | inactive |
| O=C(CC(Nc1ccc(Cl)cc1)C(=O)O)c1ccccc1 (centres undefined) | inconclusive: 167 µM [inhibitor] |  |
| O=C(c1ccc(-c2ccc([N+](=O)[O-])cc2)o1)N1CCCCC1 | inconclusive: 167 µM [inhibitor] |  |
| CC(C)N(CCC(=O)c1ccc2ccccc2c1)Cc1ccccc1 | inconclusive: 167 µM [inhibitor] |  |
| O=C(O)CNc1nc(-c2ccccc2)c2cc([N+](=O)[O-])ccc2n1 | inconclusive: 167 µM [inhibitor] |  |
| CC(Cc1ccc(O)c(O)c1)(NN)C(=O)O (centres undefined) |  | inactive |
| COc1ccc(-c2csc(Nc3ccc(C)cn3)n2)cc1 |  | inactive |
| c1cncc(Nc2nc(-c3cccs3)cs2)c1 | inconclusive: 167 µM [inhibitor] |  |
| Oc1cc2c(cc1O)[C@H]1c3ccc(O)c(O)c3OC[C@@]1(O)C2 | active: 2.06 µM |  |
| c1csc(-c2nc3ccccc3s2)c1 | inconclusive: 167 µM [inhibitor] |  |
| CCN(CC)c1ccc(NC(=O)COC(=O)CSc2ccc(Br)cc2C)cc1 | inconclusive: 167 µM [inhibitor] |  |
| CCOC(=O)C[n+]1c(C)sc2ccc(OC)cc21 |  | inactive |
| CCCOC(=O)Nc1sc2c(c1C(=O)OCC)CCC2 |  | inactive |
| O=C(O)c1ccc(-n2c(=O)c3ccccc3c3ccccc3c2=O)cc1 | inconclusive: 167 µM [inhibitor] |  |
| CC(NC(=O)c1sc2cc([N+](=O)[O-])ccc2c1Cl)C(C)(C)C (centres undefined) | active: 0.69 µM |  |
| COc1cccc(CNc2ccc(N3CCC(C)CC3)cc2)c1OC |  | inactive |
| O=C1NC(c2ccccc2)(C(F)(F)F)SC2=CCCCCN12 (centres undefined) |  | inactive |
| CCOc1cc(CNc2ccc(N(C)C)cc2)cc(Br)c1OCC(=O)NC(C)(C)C | inconclusive: 167 µM [inhibitor] |  |
| CCOC(=O)c1c(-c2ccc(C)o2)csc1NC(=O)COC(=O)c1cccs1 | inconclusive: 167 µM [inhibitor] |  |
| Cc1nc2sc3c(c2c(=O)o1)CCC3 | inconclusive: 167 µM [inhibitor] |  |

Laid out differently: entries from further up.
SMILES | Potency | outcome
O=C(COC(=O)/C=C/c1ccco1)NCc1ccccc1Cl |  | inactive
CC(C)NC[C@@H](O)c1ccc(O)c(O)c1 |  | inactive
